According to PubChem BioAssay AID266 (DTP/NCI, 2004):
The list does not hold the whole screen: its compounds were picked by chemical class. Not every dose and run of a compound is shown. T/C gives the treated animals as a percentage of the vehicle group. Schedules are NCI's codes, read here as Q, the interval in days (D) or hours (H), X, the number of doses.

Tested on: Nude mice, LX-1 lung xenograft intrarenal, tumor weight T/C
Test: NCI In Vivo Anticancer Drug Screen. Data for tumor model Human Lung LX-1 Xenograft (intrarenal inoculation) in NU/NU BALB/C (nude) mice
Settings: T/C endpoint: mean tumor weight change, schedule: Q01DX010 (sc), vehicle: Klucel (hydroxypropylcellulose) (HPC), evaluated on day 11, higher T/C = larger tumour
Protocol: The antitumor activity of compounds was measured in mice bearing transplantable tumors. Survival or tumor size were measured and the results are expressed as the measurement made in the treated group (T) divided by the measurement made in the vehicle treated control group (C). The tumor model used in this assay is Human Lung LX-1 Xenograft (intrarenal inoculation) in NU/NU BALB/C (nude) mice

Structure (SMILES): CC1=CC(=O)C(N(CCCl)CCCl)=CC1=O
- T/C (dose: 0.75 mg/kg/injection): 95 % of control
- T/C (dose: 1.5 mg/kg/injection): 125 % of control
- T/C (dose: 3.0 mg/kg/injection): 37 % of control
